Publication PMC9135340
Results are given in words; binding and its absence hold for the method and conditions named. In cells and extracts the contact can be indirect. Some binding calls cover weakened binding; strength is not graded here.

Chains of the proteins cited; added tags and fusions are not shown.
UniProt Q2GI62: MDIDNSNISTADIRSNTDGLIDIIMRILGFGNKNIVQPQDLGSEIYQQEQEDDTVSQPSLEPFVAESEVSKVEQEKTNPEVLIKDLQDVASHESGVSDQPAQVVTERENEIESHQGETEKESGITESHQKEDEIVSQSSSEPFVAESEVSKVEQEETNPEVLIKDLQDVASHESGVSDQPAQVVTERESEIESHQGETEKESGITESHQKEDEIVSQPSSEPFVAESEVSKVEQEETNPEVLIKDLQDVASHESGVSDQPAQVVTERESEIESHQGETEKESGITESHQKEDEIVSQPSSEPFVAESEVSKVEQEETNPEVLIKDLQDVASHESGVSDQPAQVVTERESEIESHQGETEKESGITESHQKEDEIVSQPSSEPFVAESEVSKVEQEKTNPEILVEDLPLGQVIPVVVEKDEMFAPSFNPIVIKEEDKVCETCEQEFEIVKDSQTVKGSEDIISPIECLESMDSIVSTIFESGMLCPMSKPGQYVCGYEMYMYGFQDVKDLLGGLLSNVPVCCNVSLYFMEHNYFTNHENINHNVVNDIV

Molecular target: E. chaffeensis TRP120 (native, in infected THP-1 cells) (E. chaffeensis (Arkansas strain)) (UniProt Q2GI62)
Assay: co-IP; Pierce Crosslink IP Kit; lysate of THP-1 cells infected with E. chaffeensis (MOI 100, 24 h); IP with TRP120-I1 or PTCH2 antibody (reverse), blot for TRP120 or PTCH2; normal rabbit IgG as control

B1: Patched-2 (PTCH2), endogenous in THP-1 cells (receptor, UniProt Q9Y6C5 1-1203)
chain: MTRSPPLRELPPSYTPPARTAAPQILAGSLKAPLWLRAYFQGLLFSLGCGIQRHCGKVLFLGLLAFGALALGLRMAIIETNLEQLWVEVGSRVSQELHYTKEKLGEEAAYTSQMLIQTARQEGENILTPEALGLHLQAALTASKVQVSLYGKSWDLNKICYKSGVPLIENGMIERMIEKLFPCVILTPLDCFWEGAKLQGGSAYLPGRPDIQWTNLDPEQLLEELGPFASLEGFRELLDKAQVGQAYVGRPCLHPDDLHCPPSAPNHHSRQAPNVAHELSGGCHGFSHKFMHWQEELLLGGMARDPQGELLRAEALQSTFLLMSPRQLYEHFRGDYQTHDIGWSEEQASTVLQAWQRRFVQLAQEALPENASQQIHAFSSTTLDDILHAFSEVSAARVVGGYLLMLAYACVTMLRWDCAQSQGSVGLAGVLLVALAVASGLGLCALLGITFNAATTQVLPFLALGIGVDDVFLLAHAFTEALPGTPLQERMGECLQRTGTSVVLTSINNMAAFLMAALVPIPALRAFSLQAAIVVGCTFVAVMLVFPAILSLDLRRRHCQRLDVLCCFSSPCSAQVIQILPQELGDGTVPVGIAHLTATVQAFTHCEASSQHVVTILPPQAHLVPPPSDPLGSELFSPGGSTRDLLGQEEETRQKAACKSLPCARWNLAHFARYQFAPLLLQSHAKAIVLVLFGALLGLSLYGATLVQDGLALTDVVPRGTKEHAFLSAQLRYFSLYEVALVTQGGFDYAHSQRALFDLHQRFSSLKAVLPPPATQAPRTWLHYYRNWLQGIQAAFDQDWASGRITRHSYRNGSEDGALAYKLLIQTGDAQEPLDFSQLTTRKLVDREGLIPPELFYMGLTVWVSSDPLGLAASQANFYPPPPEWLHDKYDTTGENLRIPPAQPLEFAQFPFLLRGLQKTADFVEAIEGARAACAEAGQAGVHAYPSGSPFLFWEQYLGLRRCFLLAVCILLVCTFLVCALLLLNPWTAGLIVLVLAMMTVELFGIMGFLGIKLSAIPVVILVASVGIGVEFTVHVALGFLTTQGSRNLRAAHALEHTFAPVTDGAISTLLGLLMLAGSHFDFIVRYFFAALTVLTLLGLLHGLVLLPVLLSILGPPPEVIQMYKESPEILSPPAPQGGGLRWGASSSLPQSFARVTTSMTVAIHPPPLPGAYIHPAPDEPPWSPAATSSGNLSSRGPGPATG
With B1 as the binder, how does the binding read?
The binding was “binds”.
